± gives the standard deviation. The list shows a part of the results. The uncertainty is large for many entries.

Experimental findings from the supplement of paper PMC10338343 are described below.

For the first assay, the system named is EfPiwi piRISC loaded with L1MC piRNA (26 nt). As to the kind of experiment: pre-steady-state target cleavage rate (min^-1); guide: L1MC piRNA 5'p-UAACUAAAUACUAUGCAAGCUGUAGG; MIWI and MILI are mouse PIWI proteins and EfPiwi is from a freshwater sponge; tags in brackets are library labels; higher = faster piRNA-guided slicing of the target. The note with it: auxiliary factor: 500 nM Ephydatia muelleri Gtsf1. An outline of the steps:
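Cleave-'n-Seq: 1 nM active affinity-purified piRISC with one synthetic guide and 0.1 nM transcribed, DNA-blocked target RNA library were mixed, with or without 500 nM GTSF1 partner protein, in HEPES–potassium acetate buffer at 33 °C for 0–8 or 0–960 min. Uncleaved targets were sequenced and normalised to depth and to weakly complementary targets, three trials were pooled, and k3 was capped at 0.0001 min^-1. The pre-steady-state cleavage rate was fitted […].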
For the sequence UCCUCCUAGAGCUAGCAUAGUAUUUAGUUA, the “pre-steady-state target cleavage rate” value stood at 0.0136 ± 0.0043.

Take “UCCUGGAUGUCGAACCAUAGUAUUUUCAAA [g6:g15:cont:t1A]”: the “pre-steady-state target cleavage rate” value turned out to be 0.00033 ± 0.021.

On to UCCUCCAACAGCUUGCAUAGUAAUUAGUUA, for which the “pre-steady-state target cleavage rate” value worked out at 0.0103 ± 0.0047.

For UCCUGGUACAGCUUGCAUAGAUUUUAGUUA, the “pre-steady-state target cleavage rate” value worked out at 0.000884 ± 0.01.

Take UCCUGGUACUGCUUGCAUAGUAUUUAGUUA: the “pre-steady-state target cleavage rate” value amounted to 0.0105 ± 0.0034.

With UCCUGGUACAGGUUGCAUAGUAUUUUGUUA, the “pre-steady-state target cleavage rate” value worked out at 0.00117 ± 0.0067.

On to UCCUGGUACAGCUUGCAAAGAAUUUAGUUA, for which the “pre-steady-state target cleavage rate” value was determined as 0.00126 ± 0.0046.

With UCCUGCUACAGCUUGAAUAGUAUUUAGUUA, the “pre-steady-state target cleavage rate” value is 0.0179 ± 0.0045.

UCCUCCUAGUGCUUGCAUAGUAUUUAGUUA: the “pre-steady-state target cleavage rate” value was 0.00928 ± 0.0031.

For UCCUCCUACAGCUUGCAUAGUAUAAAGUUA, the “pre-steady-state target cleavage rate” value amounted to 0.00527 ± 0.0031.

Take UCCUCCUACUGGUUGCAUAGUAUUUAGUUA: the “pre-steady-state target cleavage rate” value was 0.1 ± 0.025.

On to UCCUGGAACAGCUUGGUUAGUAUUUAGUAA, for which the “pre-steady-state target cleavage rate” value is 0.000953 ± 0.0057.

Turning to UCCUGCUACAGGAAGCAUAGUAUUUAGUUA, the “pre-steady-state target cleavage rate” value was 0.0127 ± 0.0035.

With UCCUGGUACAGCUUGCAUAGUAGUUAGUUA, the “pre-steady-state target cleavage rate” value was determined as 0.00515 ± 0.0021.

Consider UCCUCCUACAGCUUGCAUAGUAUUUAGUA, for which the “pre-steady-state target cleavage rate” value amounted to 0.00701 ± 0.0026.

Take UCCUGGAUCAGCUUGCAUAGUAUUUAGUA: the “pre-steady-state target cleavage rate” value was determined as 0.00808 ± 0.0034.

In the case of UCCUGGAUCAGCUAGCAUAGUAUUUUGUUA, the “pre-steady-state target cleavage rate” value was 0.00212 ± 0.0029.

For UCCUGGAUCAGCUUGACAUAGUAUUUAGUUA, the “pre-steady-state target cleavage rate” value is 0.014 ± 0.0043.

Turning to UCCUCCUACAGCUUGCAUAGUAUUUAGUAA, the “pre-steady-state target cleavage rate” value is 0.0113 ± 0.005.

Take UCCUGGAUCUCCUUGCAUAGUAUUUAGUAA: the “pre-steady-state target cleavage rate” value is 0.00383 ± 0.0026.

As for UCCUGGAUCAGCUUGCAAAGUUUUUAGUUA, the “pre-steady-state target cleavage rate” value amounted to 0.00491 ± 0.0036.

As for UCCUGCUACAGCUUGGAUAGUAUAUAGUUA, the “pre-steady-state target cleavage rate” value was found to be 0.0128 ± 0.0037.

In the case of UCCUGGAUCUGCUUGCAUAGUUUUUAGUUA, the “pre-steady-state target cleavage rate” value is 0.00787 ± 0.0041.

For the sequence UCCUGGAUGUCGAAGCAUUGUAUUAAGUUA, the “pre-steady-state target cleavage rate” value turned out to be 0.000112 ± 0.033.

With UCCUGGAUCUGCUUGCAUAGUAUUUAGUAA, the “pre-steady-state target cleavage rate” value worked out at 0.1 ± 0.038.

As for UCCUGGAUCAGCUUGCAAAGUAAUUAGUUA, the “pre-steady-state target cleavage rate” value was determined as 0.00209 ± 0.0032.

In the case of UCCUCCUACACCUUGCAUAGUAUUUUGUUA, the “pre-steady-state target cleavage rate” value came to 0.00451 ± 0.0027.

Take UCCUGCUACAGCUUGCAUAGUAUCUAGUUA: the “pre-steady-state target cleavage rate” value came to 0.00723 ± 0.0019.

With UCCUCCUACAGCUUGGAUUGUAUUUAGUUA, the “pre-steady-state target cleavage rate” value amounted to 0.0225 ± 0.0082.

On to UCCUCCUUCAGCUUGGAUAGUAUUUAGUUA, for which the “pre-steady-state target cleavage rate” value is 0.0562 ± 0.013.

For UCCUCCUUCAGCUUGCAUAGUUUUUAGUUA, the “pre-steady-state target cleavage rate” value stood at 0.00713 ± 0.0023.

Consider UCCUGGAUGUCCUUUGCAUAGUAUUUAGUUA, for which the “pre-steady-state target cleavage rate” value stood at 0.00785 ± 0.0043.

For the sequence UCCUGGAACAACUUGCAUAGUAUUUAGUUA, the “pre-steady-state target cleavage rate” value was determined as 0.0809 ± 0.023.

As to UCCUGGUACAGCUUGGAAAGUAUUUAGUUA, the “pre-steady-state target cleavage rate” value is 0.00224 ± 0.004.

Staying with this assay, now noted: auxiliary factor: none (no Gtsf1).
UCCUGGUACAGCUUGCAUAGUACUUAGUUA: the “pre-steady-state target cleavage rate” value came to 0.000484 ± 0.02.

With UCCUGGUACAGCUGGCAUAGUAUUUAGUUA, the “pre-steady-state target cleavage rate” value worked out at 0.00103 ± 0.011.

Consider UCCUGGAACUGCUUGCAUAGUAUAUAGUUA, for which the “pre-steady-state target cleavage rate” value is 0.00328 ± 0.0051.

On to UCCUGGAUGUCGAACGAUAGUAUAUAGUAA, for which the “pre-steady-state target cleavage rate” value was 0.00017 ± 0.032.

UCCUGGAUGUGCUUGCAUAGUAGUUAGUUA: the “pre-steady-state target cleavage rate” value was found to be 0.00235 ± 0.0072.
